In the supplement of paper PMC7858590:
± gives the standard deviation of the averaged measurements. Whole data set: some 3,800 compounds, median “cell shape (eccentricity) Z-score vs DMSO control” near 1.1, cut for the lowest 2% near -4.7. The list shows a part of the results.

system: human monocyte-derived macrophages (M0); assay: cell shape (eccentricity) Z-score vs DMSO control; higher = more elongated, M2-like morphology; details: 20 µM; 24 h; macrophage state: M0 (M-CSF)

Row | Structure (SMILES) | cell shape (Z-score)
1 | CC1(C)CC=C(c2cnc3ccccc3c2)c2cc(C(=O)Nc3ccc(C(=O)O)cc3)ccc21 | 1.82
2 | COc1ccc2c(=O)c(OC)c(-c3ccccc3)oc2c1 | 3.19
3 | C#C[C@]1(OC(C)=O)CCC2C3CCC4=CC(=O)CC[C@@H]4C3CC[C@@]21C (stereo partly specified) | 0.116
4 | Cc1[nH]c(=O)c(C#N)cc1-c1ccc2nccn2c1 | 0.771
5 | C=CCc1ccc(O[C@@H]2O[C@H](CO[C@@H]3O[C@@H](C)[C@H](O)[C@@H](O)[C@H]3O)[C@@H](O)[C@H](O)[C@H]2O)c(O)c1 | 0.234
6 | COc1ccc2[nH]c(S)nc2c1 | 5.21
7 | CCCCOc1ccc(CC(=O)NO)cc1 | 2.83
8 | CCN(CC)CC1CCN(c2ncc3ncnc(Nc4ccc(F)c(Cl)c4)c3n2)CC1 | 1.38
9 | Oc1c(Cl)cc(Cl)cc1Sc1cc(Cl)cc(Cl)c1O | -0.889
10 | O=C(CCCN1CC=C(n2c(=O)[nH]c3ccccc32)CC1)c1ccc(F)cc1 | -0.756
11 | C[C@]12CCC3c4ccc(OS(=O)(=O)O)cc4CCC3C1CC[C@H]2O (stereo partly specified) | 4.98
12 | CC(=O)O[C@H]1C[C@@]2(C)[C@@H](C[C@@H](O)[C@H]3[C@@]4(C)CC[C@@H](O)[C@@H](C)C4CC[C@@]32C)C1=C(CCC=C(C)C)C(=O)O (stereo partly specified) | 1.74
13 | CCC(C)(C)C(=O)OC1CC(C)C=C2C=CC(C)C(CCC3CC(O)CC(=O)O3)C21 (stereo unspecified) | 0.172
14 | CC(=O)OCC(=O)[C@@]1(O)[C@@H](C)CC2C3CCC4=CC(=O)C=C[C@]4(C)[C@@]3(F)[C@@H](O)C[C@@]21C (stereo partly specified) | -1.75
15 | COc1ccnc(CS(=O)c2nc3cc(OC(F)F)ccc3[nH]2)c1OC (stereo unspecified) | -1.46
16 | O=C(/C=C/c1ccccc1)CC(O)CCc1ccccc1 (stereo unspecified) | -0.2
17 | CCCCCCCCC=CCCCCCCCC(=O)NCc1ccc(O)c(OC)c1 | -0.105
18 | COc1cc2c(cc1OC)-c1c(oc3cc(O)cc(O)c3c1=O)CO2 | 4.24
19 | C[C@@H]1CC[C@]2(C(=O)O)CC[C@]3(C)C(=CCC4[C@@]5(C)C[C@@H](O)[C@H](O)[C@@](C)(CO)C5CC[C@]43C)C2[C@H]1C (stereo partly specified) | 2.25
20 | C[C@@H]1C(=O)O[C@H](C)[C@H]1C[C@@H](O)[C@](C)(O)[C@H]1CC[C@@]2(O)C3=CC(=O)[C@@H]4C[C@@H](O)[C@@H](O)C[C@]4(C)C3CC[C@]12C (stereo partly specified) | 1.12
21 | CN(C)CCC(c1ccccc1)c1ccccn1 (stereo unspecified) | 0.207
22 | O=C(O)CCc1nc2ccccc2[nH]1 | -1.47
23 | CCOC(=O)C(=O)c1csc(NC=O)n1 | -1.72

Row | Structure (SMILES) | cell shape (Z-score)
24 | CC(=O)OCC(=O)[C@@]1(O)CCC2C3CCC4=CC(=O)CC[C@]4(C)C3[C@@H](O)C[C@@]21C (stereo partly specified) | 0.315
25 | CCN(CC)C(=O)N1CCN(C)CC1 | 2.76
26 | COc1ccc(S(=O)(=O)N(C(C)=O)c2ccccc2/C=C/c2cc[n+]([O-])cc2)cc1 | -4.1
27 | C=C1CC[C@H]2[C@@](C)(CCC(O)[C@@]2(C)CO)[C@@H]1CCC1=CCOC1=O (stereo partly specified) | 3.19
28 | CC1(C)CCC[C@]2(C)C1CC=C(CO)[C@H]2CC/C(=C/CO)CO (stereo partly specified) | 2.48 ± 1.6
29 | Cc1c(C)n(Cc2ccccc2)c2ccc(C(=O)OCCN(C)C)cc12 | -2.89
30 | CO[C@H]1/C=C/O[C@@]2(C)Oc3c(C)c(O)c4c(O)c(c(/C=N/N5CCN(C6CCCC6)CC5)c(O)c4c3C2=O)NC(=O)/C(C)=C\C=C\[C@H](C)[C@H](O)[C@@H](C)[C@@H](O)[C@@H](C)[C@H](OC(C)=O)[C@@H]1C | -1.4
31 | CCN(CCCc1ccccc1)CCCc1ccccc1 | -3.44
32 | Cc1cc(CS(=O)(=O)c2ccccc2)cc(OCc2ccc(CN3CCC[C@@H]3CO)cc2)c1 | 1.66
33 | CC1=C2C[C@@]3(C)[C@@H](CCC[C@@H]3C)C[C@@]2(O)OC1=O | -3.39
34 | Cc1cccc(CN2CCN(C(c3ccccc3)c3ccc(Cl)cc3)CC2)c1 (stereo unspecified) | -2.42
35 | C[C@@H](O)CNC(C)(C)CC(=O)N[C@@H]1CCc2ccccc2N(Cc2ccc(-c3ccccc3-c3nn[nH]n3)cc2)C1=O | 1.86
36 | Clc1ccccc1C(c1ccccc1)(c1ccccc1)n1ccnc1 | 2.32
37 | COc1cc(O)cc2occ(-c3ccc(O)cc3)c(=O)c12 | 2.08
38 | Clc1ccc(COC(Cn2ccnc2)c2ccc(Cl)cc2Cl)cc1 (stereo unspecified) | -0.401
39 | N=C(N)c1ccc(OCCCCCOc2ccc(C(=N)N)cc2)cc1 | 1.62
40 | CCC1C(=O)O[C@]23C=C[C@@H]4C(C(=O)O)=CO[C@H](OC12)[C@@H]43 (stereo partly specified) | -2.12
41 | O=C(CCCCCCCCc1ccccc1)c1c(O)cc(O)cc1O | 1.39
42 | COC1(C2=NCCN2)COc2ccccc2O1 (stereo unspecified) | 3.52
43 | c1ccc2nc(C3=NCCN3)cnc2c1 | 1.3
44 | CCCCCC1C(=O)O/C(=C\C(=O)O)C1=O (stereo unspecified) | -1.15
45 | CCCC(C(=O)OCCN(CC)CC)(c1ccccc1)c1ccccc1 | 0.759
46 | Cc1cc(C(C)(C)C)c(O)c(C)c1CC1=NCCN1 | 2.32

Reprinted at random: six compounds from above
Row | Structure (SMILES) | cell shape (Z-score)
16 | O=C(/C=C/c1ccccc1)CC(O)CCc1ccccc1 (stereo unspecified) | -0.2
30 | CO[C@H]1/C=C/O[C@@]2(C)Oc3c(C)c(O)c4c(O)c(c(/C=N/N5CCN(C6CCCC6)CC5)c(O)c4c3C2=O)NC(=O)/C(C)=C\C=C\[C@H](C)[C@H](O)[C@@H](C)[C@@H](O)[C@@H](C)[C@H](OC(C)=O)[C@@H]1C | -1.4
21 | CN(C)CCC(c1ccccc1)c1ccccn1 (stereo unspecified) | 0.207
5 | C=CCc1ccc(O[C@@H]2O[C@H](CO[C@@H]3O[C@@H](C)[C@H](O)[C@@H](O)[C@H]3O)[C@@H](O)[C@H](O)[C@H]2O)c(O)c1 | 0.234
2 | COc1ccc2c(=O)c(OC)c(-c3ccccc3)oc2c1 | 3.19
19 | C[C@@H]1CC[C@]2(C(=O)O)CC[C@]3(C)C(=CCC4[C@@]5(C)C[C@@H](O)[C@H](O)[C@@](C)(CO)C5CC[C@]43C)C2[C@H]1C (stereo partly specified) | 2.25

Later entries:

Row | Structure (SMILES) | cell shape (Z-score)
47 | CN1CCC[C@H]1c1cccnc1 | 1.14
48 | CC1=C(CCC2=CC(=O)OC2O)[C@@]2(C)CCC[C@]3(C)C(=O)OC(C1=O)[C@@H]32 (stereo partly specified) | -2.5
49 | O=c1cc(-c2cc(O)c(O)c(O)c2)oc2cc(O)cc(O)c12 | -3.46
50 | Cc1cccc(C)c1NC(=O)C1CCCCN1C (stereo unspecified) | 2.41
51 | O=C1c2c(O)cc(O)cc2OC(c2ccc(O)cc2)C1C1C(=O)c2c(O)cc(O)cc2OC1c1ccc(O)cc1 (stereo unspecified) | 0.822 ± 0.49
52 | CC1(C)S[C@@H]2[C@H](NC(=O)COc3ccccc3)C(=O)N2[C@H]1C(=O)O | -0.712
53 | CC1=CCC2C(C)(C)CCC[C@]2(C)[C@@]12CC[C@](C)(CC(=O)O)O2 (stereo partly specified) | 0.656
54 | C[C@@H]1CC2C3C[C@H](F)C4=CC(=O)C=C[C@]4(C)[C@@]3(F)[C@@H](O)C[C@]2(C)[C@@]1(O)C(=O)COC(=O)C(C)(C)C (stereo partly specified) | -1.77
55 | COc1ccc(C(=O)O[C@H]2CC(C)=CCC3(C)CC[C@@](O)(C(C)C)[C@H]23)cc1 (stereo partly specified) | -0.32
56 | C=CCN1CCc2cc(O)c(O)cc2C(c2ccccc2)C1 (stereo unspecified) | 1.34
57 | CC(=O)OCC(=O)[C@@]1(O)CCC2C3C[C@H](C)C4=CC(=O)C=CC4(C)C3[C@@H](O)CC21C (stereo partly specified) | -2.52
58 | CC(C)c1c(O)ccc2c1CCC1C(C)(C)CCC[C@]21C (stereo partly specified) | -0.545
59 | CNC1(C)C2CCC(C2)C1(C)C (stereo unspecified) | 0.826
60 | COc1cc(/C=C/c2ccc(OC)c(OC)c2)c(CC=C(C)C)c(OC)c1 | 2.54
61 | CC(C)OC(=O)C1=CN(C(=O)c2ccc(F)c(F)c2)CC(C)(C)c2c1[nH]c1ccccc21 | 2.25
62 | COc1cc(OC)c2c(=O)c(OC)c(-c3ccccc3)oc2c1 | 1.4
63 | CC(=O)O[C@@H]1[C@@H](OC(=O)/C=C/c2ccccc2)[C@@H](OC(C)=O)[C@H](O[C@H]2[C@@H]3C=CO[C@@H](O[C@@H]4O[C@H](CO)[C@@H](O)[C@H](O)[C@H]4O)[C@@H]3[C@@]3(CO)O[C@@H]23)O[C@H]1C | 0.351
64 | CN1CCN2c3ncccc3Cc3ccccc3C2C1 (stereo unspecified) | -1.21
65 | C[C@@H](C1=C(CCN(C)C)Cc2ccccc21)c1ccccn1 | 1.35
66 | CCN(CC)CC#CCOC(=O)C(O)(c1ccccc1)C1CCCCC1 (stereo unspecified) | 1.73
67 | CC1(CO)CC(=O)CC2(C)C3=C(CCC12)C(=O)OC3 (stereo unspecified) | 0.579 ± 2.8
68 | CC(C)Oc1ccc2c(=O)c3cc(C(=O)O)ccc3oc2c1 | 0.453
69 | COc1cc2ccc(=O)oc2cc1OCC(O)C(C)(C)O (stereo unspecified) | -1.07 ± 0.15

Row | Structure (SMILES) | cell shape (Z-score)
70 | c1ccc2c(c1)CCCC2C1=NCCN1 (stereo unspecified) | 3.66
71 | CC1CCN(CCCC(=O)c2ccc(F)cc2)CC1 | -0.124
72 | O=[N+]([O-])c1ccccc1S(=O)(=O)NCC1CCC(CNCC2CCc3ccccc3C2)CC1 (stereo unspecified) | 0.873
73 | CSC(=O)OCC1=C[C@H](O)[C@@H]2C(C(=O)O)=CO[C@@H](OC3OC(CO)C(O)C(O)C3O)[C@H]12 (stereo partly specified) | -0.375
74 | COc1cc(C)c(C(=O)O[C@H]2[C@@H](OC(C)=O)[C@H](n3ccc(=O)[nH]c3=O)O[C@@H]2CO)c(OC)c1 | 1.91 ± 0.92
75 | CC1=CC[C@@]2(C)CC[C@@](O)(C(C)C)[C@@H]2[C@@H](O)C1 | -3.74
76 | NS(=O)(=O)c1cc2c(cc1Cl)NC(C(Cl)Cl)NS2(=O)=O (stereo unspecified) | -1.42
77 | CCN(CC)CCOC(=O)C(Cc1cccc2ccccc12)CC1CCCO1 (stereo unspecified) | 2.72
78 | COC(=O)[C@H]1[C@H]2C[C@@H]3c4[nH]c5cc(OC)ccc5c4CCN3C[C@H]2C[C@@H](OC(=O)c2cc(OC)c(OC)c(OC)c2)[C@@H]1OC | -4.11
79 | CC(=O)Nc1ccc(S(=O)(=O)Nc2onc(C)c2C)cc1 | 2.8
80 | COc1cc(Nc2c(C#N)cnc3cc(OCCCN4CCN(C)CC4)c(OC)cc23)c(Cl)cc1Cl | 26.7
81 | CC(C)N(CCC(=O)c1ccc2ccccc2c1)Cc1ccccc1 | 2.02
82 | COc1c2ccoc2nc2c(OC)c(OCC(O)C(C)(C)O)ccc12 (stereo unspecified) | 2.45
83 | O=C(/C=C/CCc1ccccc1)CCc1ccccc1 | -0.278 ± 1.9
84 | O=c1cc(-c2ccc(O)cc2)oc2ccc(O)cc12 | 4.02
85 | CC(=O)OCC1=C[C@@H](O)[C@@H]2C=CO[C@@H](OC3OC(CO)C(O)C(O)C3O)[C@H]12 (stereo partly specified) | 2.31
86 | CC(C)=CCC[C@](C)(O[C@@H]1O[C@H](CO[C@@H]2OC[C@H](O)[C@H](O)[C@H]2O)[C@@H](O)[C@H](O)[C@H]1O)[C@H]1CC[C@]2(C)C1[C@H](O)CC1[C@@]3(C)CC[C@H](O[C@@H]4O[C@H](CO)[C@@H](O)[C@H](O)[C@H]4O[C@@H]4O[C@H](CO)[C@@H](O)[C@H](O)[C@H]4O)C(C)(C)C3CC[C@]12C (stereo partly specified) | 2.14
87 | O=C(OC[C@H]1O[C@@H](Oc2ccc(O)cc2)[C@H](O)[C@@H](O)[C@@H]1O)c1ccc(O)cc1 | 0.0126
88 | CC(=C\C(=O)O)/C=C(\C)CC(C)CCCCC(O)C(CO)C(=O)O (stereo unspecified) | 2.02 ± 2.7
89 | COc1cc(OC)c2c(=O)cc(-c3ccccc3)oc2c1 | 2.66
90 | COc1ccc(-c2oc3ccccc3c(=O)c2OC)cc1 | 0.417
91 | CC(C)(O)C(O)COc1c2occc2cc2ccc(=O)oc12 (stereo unspecified) | 1.67 ± 2.2
